Measured values published in PMC11670450.

Sequences of proteins named here, by UniProt entry; tags and fusion partners are left off. Residues count along the entry.
UniProt P05106, residues 27-788: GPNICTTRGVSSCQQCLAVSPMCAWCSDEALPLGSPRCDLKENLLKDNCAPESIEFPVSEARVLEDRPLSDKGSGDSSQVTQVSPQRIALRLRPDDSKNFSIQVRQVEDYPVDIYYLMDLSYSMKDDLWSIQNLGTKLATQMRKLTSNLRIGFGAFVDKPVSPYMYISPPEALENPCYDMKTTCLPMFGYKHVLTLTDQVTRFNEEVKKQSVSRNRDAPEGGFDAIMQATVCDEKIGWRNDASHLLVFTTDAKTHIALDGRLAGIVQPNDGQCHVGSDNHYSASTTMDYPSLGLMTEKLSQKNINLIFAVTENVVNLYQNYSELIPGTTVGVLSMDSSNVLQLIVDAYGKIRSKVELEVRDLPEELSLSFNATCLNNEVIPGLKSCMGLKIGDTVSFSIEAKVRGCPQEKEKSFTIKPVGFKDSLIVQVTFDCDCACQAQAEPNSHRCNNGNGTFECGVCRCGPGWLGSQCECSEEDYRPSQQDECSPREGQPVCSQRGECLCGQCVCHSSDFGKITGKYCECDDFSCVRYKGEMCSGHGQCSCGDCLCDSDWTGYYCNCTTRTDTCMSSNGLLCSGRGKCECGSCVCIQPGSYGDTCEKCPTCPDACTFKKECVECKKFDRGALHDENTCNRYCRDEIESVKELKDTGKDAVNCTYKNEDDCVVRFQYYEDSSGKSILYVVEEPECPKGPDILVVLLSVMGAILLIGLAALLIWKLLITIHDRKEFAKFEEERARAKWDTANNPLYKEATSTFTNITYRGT

B1: Sodium- and chloride-dependent creatine transporter 1 (protein, UniProt P48029 1-635)
chain: MAKKSAENGIYSVSGDEKKGPLIAPGPDGAPAKGDGPVGLGTPGGRLAVPPRETWTRQMDFIMSCVGFAVGLGNVWRFPYLCYKNGGGVFLIPYVLIALVGGIPIFFLEISLGQFMKAGSINVWNICPLFKGLGYASMVIVFYCNTYYIMVLAWGFYYLVKSFTTTLPWATCGHTWNTPDCVEIFRHEDCANASLANLTCDQLADRRSPVIEFWENKVLRLSGGLEVPGALNWEVTLCLLACWVLVYFCVWKGVKSTGKIVYFTATFPYVVLVVLLVRGVLLPGALDGIIYYLKPDWSKLGSPQVWIDAGTQIFFSYAIGLGALTALGSYNRFNNNCYKDAIILALINSGTSFFAGFVVFSILGFMAAEQGVHISKVAESGPGLAFIAYPRAVTLMPVAPLWAALFFFMLLLLGLDSQFVGVEGFITGLLDLLPASYYFRFQREISVALCCALCFVIDLSMVTDGGMYVFQLFDYYSASGTTLLWQAFWECVVVAWVYGADRFMDDIACMIGYRPCPWMKWCWSFFTPLVCMGIFIFNVVYYEPLVYNNTYVYPWWGEAMGWAFALSSMLCVPLHLLGCLLRAKGTMAERWQHLTQPIWGLHHLEYRAQDADVRGLTTLTPVSESSKVVVVESVM
B2: Keratin, type I cytoskeletal 27 (protein, UniProt Q7Z3Y8 1-459)
chain: MSVRFSSTSRRLGSCGGTGSVRLSSGGAGFGAGNTCGVPGIGSGFSCAFGGSSSAGGYGGGLGGGSASCAAFTGNEHGLLSGNEKVTMQNLNDRLASYLENVRALEEANADLEQKIKGWYEKFGPGSCRGLDHDYSRYFPIIDELKNQIISATTSNAHVVLQNDNARLTADDFRLKFENELALHQSVEADINGLRRVLDELTLCRTDLEIQLETLSEELAYLKKNHEEEMKALQCAAGGNVNVEMNAAPGVDLTVLLNNMRAEYEALAEQNRRDAEAWFNEKSASLQQQISDDAGATTSARNELIEMKRTLQTLEIELQSLLATKHSLECSLTETESNYCAQLAQIQAQIGALEEQLHQVRTETEGQKLEYEQLLDIKVHLEKEIETYCLLIDGEDGSCSKSKGYGGPGNQTKDSSKTTIVKTVVEEIDPRGKVLSSRVHTVEEKSTKVNNKNEQRVSS
B3: Keratin, type II cytoskeletal 80 (protein, UniProt Q6KB66 1-452)
chain: MACRSCVVGFSSLSSCEVTPVGSPRPGTSGWDSCRAPGPGFSSRSLTGCWSAGTISKVTVNPGLLVPLDVKLDPAVQQLKNQEKEEMKALNDKFASLIGKVQALEQRNQLLETRWSFLQGQDSAIFDLGHLYEEYQGRLQEELRKVSQERGQLEANLLQVLEKVEEFRIRYEDEISKRTDMEFTFVQLKKDLDAECLHRTELETKLKSLESFVELMKTIYEQELKDLAAQVKDVSVTVGMDSRCHIDLSGIVEEVKAQYDAVAARSLEEAEAYSRSQLEEQAARSAEYGSSLQSSRSEIADLNVRIQKLRSQILSVKSHCLKLEENIKTAEEQGELAFQDAKTKLAQLEAALQQAKQDMARQLRKYQELMNVKLALDIEIATYRKLVEGEEGRMDSPSATVVSAVQSRCKTAASRSGLSKAPSRKKKGSKGPVIKITEMSEKYFSQESEVSE

Target: Integrin beta-3 (human (endogenous in HTR-8/SVneo)) (UniProt P05106)
Experiment: affinity purification with mass spectrometry; HTR-8/SVneo cell lysate incubated with anti-ITGB3 antibody or nonimmune IgG at 4 °C overnight, protein A/G beads, washes in TBS with 0.05% Tween-20, glycine pH 2.7 elution; SDS-PAGE, silver stain, in-gel digest of the enriched band, LC-MS/MS; proteins specific to the ITGB3 group, abundance threshold > 20

Binder	binding
B1	binds
B2	binds
B3	binds

No constants are given. Whether binding was seen depends on the method and setting. Binding seen in cells or lysates may run through a third protein. Here binding means that the protein was enriched with, or labelled near, the bait; the list need not be complete.
